Measurements reported in PubChem BioAssay AID686943 (Drosophila RNAi Screening Center, 2013)
The deposit covers about 23,000 reagents; below is a random part of those that have a named target and a result. 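Extra replicates exist only for a retested subset of genes; insulin dose and duration not given; both raised and lowered dpERK matter.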 Reagents against one gene are numbered here. A plus sign joins genes that one reagent is predicted to hit. Not all columns of the deposit are shown. Not given: the amount of reagent, the time to read-out.

Purpose: 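Search across the genome for regulators of signalling from receptor tyrosine kinase to ERK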 (primary screen)
System: Drosophila S2R+ haemocyte-like cells expressing YFP-tagged ERK (Rolled)
Knock-down reagent: long dsRNA against Drosophila genes
Challenge: insulin stimulation versus unstimulated cells; dose and duration not given
Detection: 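Antibody staining for doubly phosphorylated ERK divided by ERK-YFP signal, as plate z-scores, in insulin-treated and untreated cells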
Scale: replicate 1, z-score of dpERK with insulin: higher = more active ERK per ERK-YFP after insulin

{"gene":"CR43359 (pseudo)","reagent":1,"replicate 1, z-score of dpERK with insulin":-3.39}
{"gene":"CG15614","reagent":1,"replicate 1, z-score of dpERK with insulin":0.02}
{"gene":"CG14229","reagent":1,"replicate 1, z-score of dpERK with insulin":-1.92}
{"gene":"Tret1-1 (Trehalose transporter 1-1)","reagent":1,"replicate 1, z-score of dpERK with insulin":0.09}
{"gene":"Tret1-1 (Trehalose transporter 1-1)","reagent":2,"replicate 1, z-score of dpERK with insulin":-0.01}
{"gene":"Pgm1 (Phosphoglucose mutase 1)","reagent":1,"replicate 1, z-score of dpERK with insulin":0.73}
{"gene":"CG31776","reagent":1,"replicate 1, z-score of dpERK with insulin":0.47}
{"gene":"CG3534","reagent":1,"replicate 1, z-score of dpERK with insulin":0.48}
{"gene":"CG13720","reagent":1,"replicate 1, z-score of dpERK with insulin":-2.19}
{"gene":"CG8531","reagent":1,"replicate 1, z-score of dpERK with insulin":0.06}
{"gene":"CG13361","reagent":1,"replicate 1, z-score of dpERK with insulin":-0.02}
{"gene":"CG13247","reagent":1,"replicate 1, z-score of dpERK with insulin":-0.05}
{"gene":"CG32425","reagent":1,"replicate 1, z-score of dpERK with insulin":-1.06}
{"gene":"CG32425","reagent":2,"replicate 1, z-score of dpERK with insulin":-0.62}
{"gene":"mRpL46 (mitochondrial ribosomal protein L46)","reagent":1,"replicate 1, z-score of dpERK with insulin":-0.84}
{"gene":"CG9717","reagent":1,"replicate 1, z-score of dpERK with insulin":0.11}
{"gene":"CG17883","reagent":1,"replicate 1, z-score of dpERK with insulin":0.35}
{"gene":"vis + achi","reagent":1,"replicate 1, z-score of dpERK with insulin":1.19}
{"gene":"ifc (infertile crescent)","reagent":1,"replicate 1, z-score of dpERK with insulin":0.13}
{"gene":"Nrt (Neurotactin)","reagent":1,"replicate 1, z-score of dpERK with insulin":-0.35}
{"gene":"CG1275","reagent":1,"replicate 1, z-score of dpERK with insulin":-0.72}
{"gene":"ppk23 (pickpocket 23)","reagent":1,"replicate 1, z-score of dpERK with insulin":-1.43}
{"gene":"stum (stumble)","reagent":1,"replicate 1, z-score of dpERK with insulin":-0.44}
{"gene":"stum (stumble)","reagent":2,"replicate 1, z-score of dpERK with insulin":0.27}
{"gene":"Or42a (Odorant receptor 42a)","reagent":1,"replicate 1, z-score of dpERK with insulin":-0.39}
{"gene":"Acbp5 (Acyl-CoA binding protein 5)","reagent":1,"replicate 1, z-score of dpERK with insulin":0.26}
{"gene":"CG13088","reagent":1,"replicate 1, z-score of dpERK with insulin":0.24}
{"gene":"Srp9 (Signal recognition particle 9)","reagent":1,"replicate 1, z-score of dpERK with insulin":-0.91}
{"gene":"CG13671","reagent":1,"replicate 1, z-score of dpERK with insulin":0.76}
{"gene":"CG1924","reagent":1,"replicate 1, z-score of dpERK with insulin":0.56}
{"gene":"CG43092","reagent":1,"replicate 1, z-score of dpERK with insulin":0.82}

2 entries already listed, sorted by “replicate 1, z-score of dpERK with insulin”, high to low.
{"gene":"stum (stumble)","reagent":1,"replicate 1, z-score of dpERK with insulin":-0.44}
{"gene":"ppk23 (pickpocket 23)","reagent":1,"replicate 1, z-score of dpERK with insulin":-1.43}
